Test results as given in paper PMC5839063.
Construct, isoform or probe ends are uncertain for at least one entry. No signal at the amounts used counts as a negative. For some assays here: Protein sequences can lack the tags named with them.

What follows are sequences tested against T1, ArgR (Streptomyces coelicolor M145) (UniProt Q9L1A5) (assay: EMSA). Details: L-arginine (10 mM in binding buffer); 15 uL reaction with 5 uL buffer (10 mM Tris-HCl pH 7.4, 5 mM MgCl2, 2.5 mM CaCl2, 250 mM KCl, 0.5 mM DTT, 10 mM L-arginine), poly(dIdC) 1.3 ug/mL, 10% glycerol; recombinant protein; protein details: Strep-tag; label: 6-FAM; flanks not given.
T1 sequence (looked up, limits assumed): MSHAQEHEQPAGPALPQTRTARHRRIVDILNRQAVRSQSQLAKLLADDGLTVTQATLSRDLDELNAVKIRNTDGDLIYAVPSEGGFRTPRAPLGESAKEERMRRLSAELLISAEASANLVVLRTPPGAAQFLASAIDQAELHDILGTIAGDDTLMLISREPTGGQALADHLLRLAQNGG

**Q.** Does “GGTTTCATGCTAGGGCAGGACGGGCGGCAGCCGCGGATCACCCGCGAGTCGTTCAACGTTCACCTTCCCCGCCGATTCTCCTCGAAGCCGCGCACGGCGGCGGTCTTCAGGAGGAACACGCATGGGGCACGGACACGGACACCCGCACGGTCACCACCACCACGGACATACGCACGACCACGAGCACGCCACCGAACAG (double strand) [Promoter region of SCO6145]” bind?
**A.** no binding

**Q.** Does “TCACCTCGACCGGTGGCGTGATCACCGCGGCCGGGCTGGTGCTGGCCGGGACCTTCGCCGCGCTGGCCACGCTGCCGCTGGTCTTCATCGCCGAGCTCGGATTCACGGTCGCGGTGGGCGTCCTGCTCGACACCATGATCGTGCGATCGGTCCTGGTCACCGCGCTCACTCTCGATGTCGGCCGGTGGATGTGGTGGCCGCACCCGCTCGCCCGGCGCGAGGACCCTTC (double strand) [Coding region of SCO5084, actII-3]” bind?
**A.** no binding

**Q.** Does “TGGCCGTTTCAGTCCTCCGGGAAGCCGGTATTCCGGGGGCGTGTGCGCCGAAGTATGGAGAAGATCTGCATAATCTCTGGAGGTCGCGAGGGGGTCGCGAGGGGAGGGACGAACGCGTGGATCAGCAGAAGGAGCCGTCGCAGGACCGGCCGGCGGGGGCCGCCTGCCCGGAGTGCGGCACACCCAGGGCGGCGGACAACACC (double strand) [Coding region of SCO2345]” bind?
**A.** no binding

**Q.** Does “TTCGGCAACGGCAACGGCACGGGGGACGGCACGGAGGGCGCGTACAACGACACGGTCTTCGGCACCTACATGCACGGCCCCGTGCTGGCCCGCAACCCGCTGATCGCGGACCTGCTGCTCAAGCTGGCCCTCGACGTGAACGCGCTGCCGCCGACCGACGACCGCTGGTACGAGGCGCTGCGCAACGAGCGCATCGCGGCCGCGCAGCAGCCTGCCTGACCCTGGCGGGGCGGGCCCGTCTGATGCCCCGTCCGCACAGGTGAGCGGACTCGTCCAGTAGGCGGACGCACGGTTCGGTCCCGCCCCCCGATGCCGCTAGGGTGGCGGGGATCGAGCCGGACAGCGCGGTCCGGACCCGTGCCACGTTGAGAAGGTATTTCGGGCTATGCGCATTGGTGTCCTCACGTCCGGCGGCGACTGCCCCGGCCTGAACGCCGTCATCCGGTCCGTCGTGCACCGCGCCGTCGTCGACCACGGCGACGAGGTCATCGGTTTCCGGGACGGCT (double strand) [Promoter region of SCO1214]” bind?
**A.** no binding

These sequences were tested against ArgR (UniProt Q9L1A5) (assay: EMSA). Details: L-arginine, unlabeled probe competition at 9.5x and 19x; EMSA: 5 uL buffer (10 mM Tris-HCl pH 7.4, 5 mM MgCl2, 2.5 mM CaCl2, 250 mM KCl, 0.5 mM DTT, 10 mM L-arginine) in 15 uL, poly(dI-dC) 1.3 ug/mL, 10% glycerol, 2 nM probe; recombinant protein; protein details: Strep-tag; label: 6-FAM; probe letters rebuilt from the primers and the genome; part of a longer molecule.

**Q.** Does “GCGACCTCGCCTGGTTCCACGACATGCACATCGGCTACATGCCGTACTACATCAACGCGTTCGCCTTCTACGGCCTGCTCACCGAGCTGTGCGCCCGCTGGCTCGGCAGCGACGGCGTGGGCCTGCAGAACCGCGTCAAGACCGACATGTCCAGCCTGCGCACCGTCGAGTCGGCCAAGGAGGTCTGGTCGGTCGCCCAGGCCGCCAAGAACGA (double strand) [redH (SCO5896) probe]” bind?
**A.** binds

Same assay, conditions: L-arginine; EMSA: 5 uL buffer (10 mM Tris-HCl pH 7.4, 5 mM MgCl2, 2.5 mM CaCl2, 250 mM KCl, 0.5 mM DTT, 10 mM L-arginine) in 15 uL, poly(dI-dC) 1.3 ug/mL, 10% glycerol, 2 nM probe; recombinant protein; protein details: Strep-tag; label: 6-FAM; probe letters rebuilt from the primers and the genome; part of a longer molecule

**Q.** Does “CGCTGCCAGGAGTTGAGGATGCCCTCGGGCACGACCGCCGCAGGCAGTTCCGCGTTCTGAAGGAACTTCAGGCGTGCTCGCGCGATGGTTCGGTCGCGCGCTGTGCTGTCACTGAGCATGGCGCCCCTCCGATGAGCGTGTTTCCGCCATATTACGAACGCGTTTGCACCTGTCAACGGGGGGTTGGGTACGGCTTTTCCCCGCGTTCGCCGTGCCCTGATCAGGGGCGGGCCGGGTGTGTTCCACATTGAAAAAGTCGACGGCGCTCCCCGCCCGCACGCTGTTGGGCAGCACCGCACGAGAGCGCGGAGGCTCCCCGCCGAGCAGTCGAACCCTGGAGGACCCAT (double strand) [SCO0255-SCO0256 intergenic probe]” bind?
**A.** binds

**Q.** Does “CGGATACTCGCACAAGCAGAATTTAAGAATTCTACTCAGCGCAGCTTCCCGTATTCTTCTGCCCGCTTTCTTCGGACCTAAACACAAAGATTTCACGACTAACGATCTTCACATTTCGGACACGTCTCGCACGGGTTACGCGATTGTGACCCGATCCACATGCTGCCCGATTTGCGGCTTACGCACCCGTCAAATCGCCCCATAACGCCGTCGTCTCGCGCGGAAGCACGCGCCCGCGTGATAACACAAGCGGCACTCATTCGTAACCCCATCCGGCGATGCAATTTCGAATTTCGCTGGGTAAATTCAATTTGCATGACTGCCGCGCAAGCAGACCTGCAAATCGATCGTCC (double strand) [ectA (SCO1863-SCO1864) intergenic probe]” bind?
**A.** binds

**Q.** Does “GACGCACATCATGGAGACCGTCGACATCGGCGTCCCCCTGCGCACCGTCTACGACCAGTGGACGCAGCTCCAGGACTTCAGCGACTTCACCAAGGGCGTGCAGAGCGTCAGCCCCCACGACGAGACGACCTCGGACTGGACCGCCAAGATCGCTTTCTCGACCCGCAGCTGGAAG (double strand) [gvpZ2 (SCO0654) coding region probe]” bind?
**A.** no binding

**Q.** Does “GCGTAGGTGACGCTCCATCAGTGAGCTTCTTCGATGTGGCCACCGATCGGGTGACGGGCCGTGAAGCGCAACGAGCGAGGCCCCCGGGCTGTTGATCGAGATGTCTGACGTCTCAATCACGTTGCTCGGGGGCCTCGTTGGTCATGCATCCTGCCGCACTTGACCTGCCGCATGCACTCGTGGAGTGGGCCACCATGCT (double strand) [SCO5326 probe]” bind?
**A.** binds

**Q.** Does “TCCTCCTCTTCCGCCGGGAATCCGGGACGCCGCTGCTCCGGAACCCGCGGTCCACCGTCCATGCCGTCCCCCTAGACATCCTGAGCAACCACGTCAGTTTGCCTTGTTCATGCCGACCACGTCAGCCGTGGGAGACGCCGATCACAGGTTCTCCATCAGCTTCTTCGGCTTTGCCCCTCCAACTCCACCCGTACCGTCAGCAGCCCCGTCCCGACGCCCATCGCCCGCACCGCCACGCTGTTGAGGCGGGGGAGG (double strand) [afsR (SCO4426) promoter probe]” bind?
**A.** binds

**Q.** Does “TGTGGCGTCCGCGTCCTTCATCTTGTCGCTCATGGACTTCGCTCCTCATGGGTCGTGACGAGGTAGCAACGCCCGTCCGGTAGCTCCCCCGTAGGCTGCCGGACGGGCGCGCGGAGCCGCACACTAACTGGTGGGCTCGGTCGTCATCCGTCTGCCCCCCGATGCGACGGTCTGACGGAGATGACAGTGCCAGGGGGAGATAAACGAACGCTGAACGCTCCGG (double strand) [afsS (SCO4425) promoter probe]” bind?
**A.** binds
